Source: article PMC4961739, “Regulation of post-Golgi LH3 trafficking is essential for collagen homeostasis” (Nature Communications, 2016)

How the values were obtained:
[1] = biological target: myc-tagged VIPAR C-terminal construct C+ (human); assay: co-IP; HEK293 cells transfected 48 h; NP-40 lysis buffer (0.3% NP-40, 10 mM HEPES pH 8.5, 10 mM KCl, 5 mM MgCl2, 5 mM DTT); anti-myc or anti-HA antibody on Dynabeads Protein G, overnight at 4 °C; western blot
[2] = biological target: myc-tagged VIPAR C-terminal construct C- (human); assay: as above

binding [1]: binds
binding [2]: binds
B1: HA-tagged VPS33B (protein, UniProt Q9H267 1-617)
chain: MAFPHRPDAPELPDFSMLKRLARDQLIYLLEQLPGKKDLFIEADLMSPLDRIANVSILKQHEVDKLYKVENKPALSSNEQLCFLVRPRIKNMRYIASLVNADKLAGRTRKYKVIFSPQKFYACEMVLEEEGIYGDVSCDEWAFSLLPLDVDLLSMELPEFFRDYFLEGDQRWINTVAQALHLLSTLYGPFPNCYGIGRCAKMAYELWRNLEEEEDGETKGRRPEIGHIFLLDRDVDFVTALCSQVVYEGLVDDTFRIKCGSVDFGPEVTSSDKSLKVLLNAEDKVFNEIRNEHFSNVFGFLSQKARNLQAQYDRRRGMDIKQMKNFVSQELKGLKQEHRLLSLHIGACESIMKKKTKQDFQELIKTEHALLEGFNIRESTSYIEEHIDRQVSPIESLRLMCLLSITENGLIPKDYRSLKTQYLQSYGPEHLLTFSNLRRAGLLTEQAPGDTLTAVESKVSKLVTDKAAGKITDAFSSLAKRSNFRAISKKLNLIPRVDGEYDLKVPRDMAYVFGGAYVPLSCRIIEQVLERRSWQGLDEVVRLLNCSDFAFTDMTKEDKASSESLRLILVVFLGGCTFSEISALRFLGREKGYRFIFLTTAVTNSARLMEAMSEVKA

Results are given in words; binding and its absence hold for the method and conditions named. In cells and extracts the contact can be indirect. Binding calls can cover weak binding; strength is not graded here. Sequences can lack the tags named with a protein.
